Data as given in PubChem BioAssay AID652243 (Drosophila RNAi Screening Center, 2013).
The deposit covers about 24,000 reagents; below is a random part of those with a known target gene and a result. Over the whole deposit, 246 (1%) are marked active. 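Plates not normalised; calls are printed but the firefly/Renilla ratio behind them is not deposited; fold cut for lowering reported inconsistently.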 Raw values are not corrected between plates. The numbers tell different reagents against one gene apart. Names joined by + are all predicted targets of the reagent. Reagent sequences are not shown. Not given: the amount of reagent.

Screen: 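Fly genes required for human androgen receptor driven transcription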 (primary screen)
Cells: Drosophila S2R+ cells
Reagents: long dsRNA against Drosophila genes
Time to read-out: 72 h (48 h, then 24 h hormone)
Challenge: synthetic androgen R1881 at 10 nM for 24 h
Detection: 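Firefly light from an androgen-responsive reporter and Renilla control light per well, raw and unnormalised, for each of two replicates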
Reading the numbers: firefly reporter light: higher = more light from androgen-responsive reporter; Renilla control light: higher = more constitutive control signal (cell number, transfection)
Rule for the call: 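Across duplicate plates, a knock-down whose log firefly/Renilla ratio shifted a set fold down or up from the GFP/LacZ control mean was a hit; the downward cut appears as both 1.5 and 3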
Meaning of the calls: active = hit: reporter lowered or raised; inactive = no hit

vig2 #1
- firefly reporter light, replicate 1: 72738
- firefly reporter light, replicate 2: 59720
- Renilla control light, replicate 1: 7.46e5
- Renilla control light, replicate 2: 4.69e5
- Outcome: inactive

vig2 #2
- firefly reporter light, replicate 1: 3.92e5
- firefly reporter light, replicate 2: 4.10e5
- Renilla control light, replicate 1: 9.74e5
- Renilla control light, replicate 2: 1.13e6
- Outcome: inactive

smg #1
- firefly reporter light, replicate 1: 5.23e5
- firefly reporter light, replicate 2: 6.20e5
- Renilla control light, replicate 1: 1.01e6
- Renilla control light, replicate 2: 1.10e6
- Outcome: inactive

smg #2
- firefly reporter light, replicate 1: 3.36e5
- firefly reporter light, replicate 2: 3.90e5
- Renilla control light, replicate 1: 9.06e5
- Renilla control light, replicate 2: 7.26e5
- Outcome: inactive

Nuak #1
- firefly reporter light, replicate 1: 1.07e5
- firefly reporter light, replicate 2: 92688
- Renilla control light, replicate 1: 1.96e6
- Renilla control light, replicate 2: 1.38e6
- Outcome: inactive

Nuak #2
- firefly reporter light, replicate 1: 11612
- firefly reporter light, replicate 2: 14698
- Renilla control light, replicate 1: 5.65e5
- Renilla control light, replicate 2: 3.57e5
- Outcome: inactive

Nuak #3
- firefly reporter light, replicate 1: 1.68e5
- firefly reporter light, replicate 2: 1.58e5
- Renilla control light, replicate 1: 2.86e6
- Renilla control light, replicate 2: 1.98e6
- Outcome: inactive

Nuak #4
- Outcome: inactive

CG14778
- firefly reporter light, replicate 1: 3.23e5
- firefly reporter light, replicate 2: 2.77e5
- Renilla control light, replicate 1: 4.83e6
- Renilla control light, replicate 2: 3.95e6
- Outcome: inactive

sel
- firefly reporter light, replicate 1: 4.11e5
- firefly reporter light, replicate 2: 4.15e5
- Renilla control light, replicate 1: 2.23e6
- Renilla control light, replicate 2: 2.07e6
- Outcome: inactive

Fbw5 #1
- firefly reporter light, replicate 1: 1.97e5
- firefly reporter light, replicate 2: 1.86e5
- Renilla control light, replicate 1: 2.42e6
- Renilla control light, replicate 2: 1.76e6
- Outcome: inactive

Fbw5 #2
- firefly reporter light, replicate 1: 7.30e5
- firefly reporter light, replicate 2: 9.12e5
- Renilla control light, replicate 1: 8.58e5
- Renilla control light, replicate 2: 8.58e5
- Outcome: inactive

Hmgs #1
- firefly reporter light, replicate 1: 1.11e5
- firefly reporter light, replicate 2: 1.04e5
- Renilla control light, replicate 1: 1.45e6
- Renilla control light, replicate 2: 1.45e6
- Outcome: inactive

Hmgs #2
- firefly reporter light, replicate 1: 2.89e5
- firefly reporter light, replicate 2: 2.90e5
- Renilla control light, replicate 1: 9.68e5
- Renilla control light, replicate 2: 8.53e5
- Outcome: inactive

A run of entries from the list above:
vig2 #1
- firefly reporter light, replicate 1: 72738
- firefly reporter light, replicate 2: 59720
- Renilla control light, replicate 1: 7.46e5
- Renilla control light, replicate 2: 4.69e5
- Outcome: inactive

vig2 #2
- firefly reporter light, replicate 1: 3.92e5
- firefly reporter light, replicate 2: 4.10e5
- Renilla control light, replicate 1: 9.74e5
- Renilla control light, replicate 2: 1.13e6
- Outcome: inactive

smg #1
- firefly reporter light, replicate 1: 5.23e5
- firefly reporter light, replicate 2: 6.20e5
- Renilla control light, replicate 1: 1.01e6
- Renilla control light, replicate 2: 1.10e6
- Outcome: inactive

Next reagents follow:
CG30159 #1
- firefly reporter light, replicate 1: 6.27e5
- firefly reporter light, replicate 2: 7.37e5
- Renilla control light, replicate 1: 2.06e6
- Renilla control light, replicate 2: 2.01e6
- Outcome: inactive

CG30159 #2
- firefly reporter light, replicate 1: 3.16e5
- firefly reporter light, replicate 2: 2.51e5
- Renilla control light, replicate 1: 7.72e5
- Renilla control light, replicate 2: 6.84e5
- Outcome: inactive

CG12862
- firefly reporter light, replicate 1: 88322
- firefly reporter light, replicate 2: 1.23e5
- Renilla control light, replicate 1: 1.37e6
- Renilla control light, replicate 2: 1.37e6
- Outcome: inactive

Atf-2 + veg (retired record) #1
- firefly reporter light, replicate 1: 8.58e5
- firefly reporter light, replicate 2: 9.77e5
- Renilla control light, replicate 1: 1.22e6
- Renilla control light, replicate 2: 1.32e6
- Outcome: inactive

Atf-2 + veg (retired record) #2
- firefly reporter light, replicate 1: 3.19e5
- firefly reporter light, replicate 2: 3.76e5
- Renilla control light, replicate 1: 2.76e6
- Renilla control light, replicate 2: 3.74e6
- Outcome: inactive

CG7943
- firefly reporter light, replicate 1: 1.21e5
- firefly reporter light, replicate 2: 77703
- Renilla control light, replicate 1: 8.17e5
- Renilla control light, replicate 2: 5.94e5
- Outcome: inactive

CG18545
- firefly reporter light, replicate 1: 1.04e5
- firefly reporter light, replicate 2: 1.67e5
- Renilla control light, replicate 1: 1.43e6
- Renilla control light, replicate 2: 1.99e6
- Outcome: inactive

Cad87A #1
- firefly reporter light, replicate 1: 59948
- firefly reporter light, replicate 2: 60532
- Renilla control light, replicate 1: 5.24e5
- Renilla control light, replicate 2: 4.87e5
- Outcome: inactive

Cad87A #2
- firefly reporter light, replicate 1: 3.39e5
- firefly reporter light, replicate 2: 4.94e5
- Renilla control light, replicate 1: 8.48e5
- Renilla control light, replicate 2: 1.00e6
- Outcome: inactive

TwdlN
- firefly reporter light, replicate 1: 5.78e5
- firefly reporter light, replicate 2: 6.09e5
- Renilla control light, replicate 1: 8.89e5
- Renilla control light, replicate 2: 1.09e6
- Outcome: inactive

Gpo3
- firefly reporter light, replicate 1: 1.27e5
- firefly reporter light, replicate 2: 1.60e5
- Renilla control light, replicate 1: 1.47e6
- Renilla control light, replicate 2: 1.56e6
- Outcome: inactive

CG5348
- firefly reporter light, replicate 1: 77628
- firefly reporter light, replicate 2: 67634
- Renilla control light, replicate 1: 1.36e6
- Renilla control light, replicate 2: 1.36e6
- Outcome: inactive

Eaf #1
- firefly reporter light, replicate 1: 25727
- firefly reporter light, replicate 2: 48559
- Renilla control light, replicate 1: 1.61e5
- Renilla control light, replicate 2: 2.16e5
- Outcome: inactive

Eaf #2
- firefly reporter light, replicate 1: 3.59e5
- firefly reporter light, replicate 2: 3.61e5
- Renilla control light, replicate 1: 9.08e5
- Renilla control light, replicate 2: 8.89e5
- Outcome: inactive

Eaf #3
- firefly reporter light, replicate 1: 4.88e5
- firefly reporter light, replicate 2: 7.30e5
- Renilla control light, replicate 1: 1.89e6
- Renilla control light, replicate 2: 1.63e6
- Outcome: inactive

Eaf #4
- firefly reporter light, replicate 1: 3.42e5
- firefly reporter light, replicate 2: 3.59e5
- Renilla control light, replicate 1: 8.69e5
- Renilla control light, replicate 2: 8.37e5
- Outcome: inactive
